Test results as given in US12291507B2, “Compounds and their use for the treatment of ALPHA1-antitrypsin deficiency” (CENTESSA PHARMACEUTICALS (UK) LIMITED, priority 2019, dated 2025).
Some entries share one result that the patent states for a list of compounds.

Sequences of proteins named here, by UniProt entry; tags and fusion partners are left off. Residues count along the entry.
UniProt P01009, 25-418 E366K: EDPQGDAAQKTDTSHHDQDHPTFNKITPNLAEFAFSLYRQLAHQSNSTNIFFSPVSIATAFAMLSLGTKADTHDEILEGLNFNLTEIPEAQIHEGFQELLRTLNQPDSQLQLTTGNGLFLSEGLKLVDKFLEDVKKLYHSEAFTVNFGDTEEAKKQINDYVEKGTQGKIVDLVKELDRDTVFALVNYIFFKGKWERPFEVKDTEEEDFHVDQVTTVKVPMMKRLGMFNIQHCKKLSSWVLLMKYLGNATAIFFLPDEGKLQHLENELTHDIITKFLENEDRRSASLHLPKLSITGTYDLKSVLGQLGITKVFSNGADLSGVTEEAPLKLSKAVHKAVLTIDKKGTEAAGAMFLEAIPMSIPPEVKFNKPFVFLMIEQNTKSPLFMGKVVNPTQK

Target: T1, Z A1AT (Homo sapiens, UniProt P01009, E366K)
T1 construct: expressed in transfected cells; host or cells: HEK-Z (human embryonic kidney cells stably transfected with the human Z A1AT gene)
Assay: A1AT cell secretion assay using HEK-Z cells
Type: cell-based
Conditions: at 300 nM
Description: HEK-Z cells, a human embryonic kidney cell line stably transfected with the human Z A1AT gene, were plated into 96 well plates (3.0×10^5 cells/ml with 200 μl of media/well) overnight at 37° C. in a humidified atmosphere containing 5% CO2. Following incubation cells were washed with 200 μl serum-free media three times and media was replaced with treatments in quadruplicate using serum free media containing either vehicle, 10 μM suberanilohydroxamic acid (SAHA) or a compound of the invention (at concentrations of 10, 33, 100 and 333 nM) for 48 h in a 37° C. incubator in a final volume of 200 μl. At the end of the incubation step the supernatants were removed from the wells, centrifuged at 1000×g at 4° C. for 10 min and were assayed for human A1AT levels by ELISA (Human Serpin A1/α1-antitrypsin duo set ELISA, R& D Systems, DY1268) per manufacturer's instructions.
Briefly, a 96 well plate was coated with human A1AT capture antibody overnight at room temperature (1:180 dilution from stock, 100 μl final volume/well). The capture antibody was then removed and wells washed three times with 300 μl wash buffer (0.05% Tween 20 in PBS) and then 200 μl reagent diluent ([…]) was incubated in each well for 1 h at room temperature. Diluted samples, standards (125, 250, 500, 1000, 2000, 4000 and 8000 pg/ml A1AT) or blanks were then added to each well in duplicate and the plates were covered with a plate sealer and left at room temperature for 2 h. At the end of the sample incubation step, samples were removed and all wells washed as previously and 100 μl detection antibody (1:180 dilution from stock) was added to each well and incubated for a further 2 h at room temperature. Following incubation with detection antibody, supernatant was removed and wells were washed as previously and 100 μl streptavidin-HRP solution (1:200 dilution from stock) was added to each well for 20 min in the dark. After which, 50 μl stop solution (2M H2SO4) was added and optical density (OD) of each well was read at 450 nm with 570 nm blank subtracted from each well using a microplate reader. A 4-parameter logistic curve was constructed using GraphPad Prism 7 and A1AT concentrations were determined in each sample by interpolation from a standard curve and multiplying by the appropriate dilution factor.

Secretion of Z A1AT from HEK-Z cells, increase secretion:
CN(C)C(=O)c1ccc(Cn2ccc(=O)[nH]c2=O)cc1 [Example 1, 4-((2,4-dioxo-3,4-dihydropyrimidin-1(2H)-yl)methyl)-N,N-dimethylbenzamide]
CC(C)N(C)C(=O)c1ccc(Cn2c(=O)cc[nH]c2=O)cc1 [Example 7, 4-((2,6-dioxo-3,6-dihydropyrimidin-1(2H)-yl)methyl)-N-isopropyl-N-methylbenzamide]
CN(Cc1ccccc1)C(=O)c1ccc(Cn2c(=O)cc[nH]c2=O)cc1 [Example 8, N-benzyl-4-((2,6-dioxo-3,6-dihydropyrimidin-1(2H)-yl)methyl)-N-methylbenzamide]
CN(C)C(=O)c1ccc(Cn2c(=O)cc[nH]c2=O)cc1 [Example 5, 4-((2,6-dioxo-3,6-dihydropyrimidin-1(2H)-yl)methyl)-N,N-dimethylbenzamide]
CNC(=O)c1ccc(Cn2ccc(=O)[nH]c2=O)cc1 [Example 2, 4-((2,4-dioxo-3,4-dihydropyrimidin-1(2H)-yl)methyl)-N-methylbenzamide]
O=C(NCc1ccc(F)cc1)c1ccc(Cn2ccc(=O)[nH]c2=O)cc1 [Example 4, 4-((2,4-dioxo-3,4-dihydropyrimidin-1(2H)-yl)methyl)-N-(4-fluorobenzyl)benzamide]
CN(CC(F)(F)F)C(=O)c1ccc(Cn2c(=O)cc[nH]c2=O)cc1 [Example 9, 4-((2,6-dioxo-3,6-dihydropyrimidin-1(2H)-yl)methyl)-N-methyl-N-(2,2,2-trifluoroethyl)benzamide]
CCN(C)C(=O)c1ccc(Cn2c(=O)cc[nH]c2=O)cc1 [Example 6, 4-((2,6-dioxo-3,6-dihydropyrimidin-1(2H)-yl)methyl)-N-ethyl-N-methylbenzamide]
CC(C)NC(=O)c1ccc(Cn2ccc(=O)[nH]c2=O)cc1 [Example 3, 4-((2,4-dioxo-3,4-dihydropyrimidin-1(2H)-yl)methyl)-N-isopropylbenzamide]
